Data taken from US20020150961A1, “Activity-dependent cysteine protease profiling reagent” (The Regents of the University of California Office of …, priority 2000, published 2002).
Some entries share one result that the patent states for a list of compounds.

Test system: cysteine proteases in DC2.4 dendritic cell extracts
Assay: Direct labeling of DC2.4 total cell extracts with probes (affinity blot / autoradiography)
Assay type: binding
Settings: non-radio-iodinated probes, 50 μM, DC2.4 extracts
Description: Tissues were dounce-homogenized in buffer A (50 mM Tris pH 5.5, 1 mM DTT, 5 mM MgCl2, 250 mM sucrose) and extracts centrifuged at 1,100×g for 10 min at 4° C. The resulting supernatant was centrifuged at 22,000×g for 30 min at 4° C. and final supernatants used for all labeling experiments. Cells were lysed using glass beads (<104 microns) in buffer A and supernatants centrifuged for 15,000×g for 15 min at 4° C. The total protein concentration of the final supernatants (soluble) was determined by BCA protein quantification (Pierce).
Equivalent amounts of radioactive inhibitor stock solutions (approx. 10^6 cpm per sample) were used for all labeling experiments. Samples of lysates (100 μg total protein in 100 μL buffer; 50 mM Tris pH 5.5, 5 mM MgC12, 2 mM DTT) were labeled for 1 hour at 25° C. unless noted otherwise. Samples were quenched by dilution of 4×SDS sample buffer to 1×(for 1D SDS-PAGE) or by dissolving urea to a final concentration of 9.5 M (for 2D SDS-PAGE).
Quenched DCG-04 labeled samples were separated by SDS/PAGE […] and transferred to nitrocellulose using semi-dry apparatus. Membranes were blocked using phosphate buffered saline (PBS) and 5% (w/v) dry milk for 30 min at 25° C. Blots were washed briefly with PBS/0.2% Tween (PBS-Tween) and treated with avidin-horseradish peroxidase conjugate (VectaStain) in PBS-Tween for 30 min. at 25° C. […]

DCG-04
size range of polypeptides labeled, affinity blot: 20-40 kDa
